Test results: paper doi:10.1101/074989
No constants are given. Whether binding was seen depends on the method and setting. Some entries that bind do so weakly or less than the wild type.

Protein sequences, listed by entry. Tags and fused reporters are not part of them.
UniProt O64645: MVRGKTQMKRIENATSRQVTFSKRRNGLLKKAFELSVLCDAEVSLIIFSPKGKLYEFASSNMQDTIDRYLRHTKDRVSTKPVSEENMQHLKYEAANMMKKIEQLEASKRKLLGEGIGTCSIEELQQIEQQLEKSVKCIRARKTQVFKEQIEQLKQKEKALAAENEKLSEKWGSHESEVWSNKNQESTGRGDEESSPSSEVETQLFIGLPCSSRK

Molecular target: SUPPRESSOR OF OVEREXPRESSION OF CONSTANS 1 (Arabidopsis thaliana) (Arabidopsis thaliana) (UniProt O64645)
Test: two-hybrid

B1: AGL24 (Arabidopsis thaliana) (protein, UniProt O82794 1-220)
chain: MAREKIRIKKIDNITARQVTFSKRRRGIFKKADELSVLCDADVALIIFSATGKLFEFSSSRMRDILGRYSLHASNINKLMDPPSTHLRLENCNLSRLSKEVEDKTKQLRKLRGEDLDGLNLEELQRLEKLLESGLSRVSEKKGECVMSQIFSLEKRGSELVDENKRLRDKLETLERAKLTTLKEALETESVTTNVSSYDSGTPLEDDSDTSLKLGLPSWE
binding: binds
